# Laboratory results: PubChem BioAssay AID504791 (Drosophila RNAi Screening Center, 2011)
# Aim: 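Genes of the fly required for silencing by miRNA, siRNA or endo-siRNA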 (primary screen)
# Cells: Drosophila S2-derived reporter cells
# Reagent: long dsRNA against Drosophila genes, about 150-250 ng dsRNA per well (siRNA assay); about 80-120 ng (miRNA assay)
# Timing: about 5 days (siRNA assay); about 4 days (miRNA assay)
# Treatment: copper sulfate induction of reporters: 25 µM (siRNA assay); 200 mM stated (miRNA assay), 1-2 days before reading
# Measured: 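Dual luciferase assay: Renilla to firefly signal ratio in each well, scaled to the mean ratio of its plate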
# Rule for the call: 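First-pass picks had plate-scaled ratios over 1.5 for the siRNA assay, over 1.6 for the miRNA assay, or under 0.6; two distinct dsRNAs had to score alike on retest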
# The deposit covers about 23,000 reagents; shown is a random part of those with a known target gene and a result. In the full data, 199 (0.86%) are marked active. 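Plate-scaled ratios behind the calls are not deposited; printed light signals are raw; many rows marked increased or decreased are still called inactive.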 Unmarked entries are inactive. Names joined by + are all predicted targets of the reagent. The record does not give: the direction of the score.
target gene,DRSC id,stable siRNA reporter change,miRNA reporter change,"stable assay Renilla, run 1 (luminescence)","stable assay firefly, run 1 (luminescence)"
CG32225,DRSC09657,,,5486,4.08e5
Cda9,DRSC06593,,,6683,3.46e5
CG6462,DRSC10641,,,6480,4.75e5
IFT46,DRSC02462,,,6823,4.80e5
CG32832,DRSC01562,,,4787,2.99e5
PGRP-LD + Cralbp + Pmi,DRSC09743,,,5723,3.34e5
Pino,DRSC00038,,,5051,3.36e5
Pino,DRSC00662,,,63758,1.61e5
Acbp6,DRSC10217,,,5864,4.15e5
Efa6,DRSC13569,,,4007,3.35e5
Efa6,DRSC15312,,,4547,3.37e5
Efa6,DRSC16141,,,6287,3.75e5
ppk13,DRSC02382,,,6624,3.64e5
Inx7,DRSC18784,,,6007,2.40e5
Ssk,DRSC10756,,,10414,3.80e5
CG7992,DRSC20070,,,5171,3.93e5
CG11837,DRSC14397,,,8839,5.91e5
CHOp24,DRSC18310,,,8918,5.95e5
bnl,DRSC13377,,,4495,3.31e5
bnl,DRSC16913,,,7710,2.84e5
bnl,DRSC23212,,,4023,3.11e5
d-cup,DRSC14846,,,7056,4.68e5
SCCRO3,DRSC06359,,,6747,4.52e5
CG10336,DRSC02037,,,7534,1.65e6
Hipk,DRSC07885,,,4979,3.49e5
Hipk,DRSC08507,reporter ratio lowered past the hit cutoff,reporter ratio lowered past the hit cutoff,4468,3.19e5
Hipk,DRSC23155,,,4407,2.94e5
CG5348,DRSC06933,,,6355,3.20e5
CG10559,DRSC14255,,,7230,4.05e5
inaE,DRSC19376,,,6399,5.15e5
inaE,DRSC19377,,,8342,5.53e5
inaE,DRSC19379,,,3851,3.61e5
inaE,DRSC19726,,,5734,5.01e5
CG31528,DRSC12003,,,5642,3.09e5
Ilp8,DRSC10076,,,7752,4.17e5
mRpL20,DRSC09828,,,5879,4.72e5
CG15202,DRSC19649,,,4895,4.12e5
twr,DRSC12491,,,7290,5.88e5
Set8,DRSC15473,,,9281,4.13e5
CG30043,DRSC06285,,,6696,3.69e5
CG17658,DRSC04292,,,5822,3.27e5
CG40485,DRSC20624,,,5216,3.29e5
CG11000,DRSC12158,,,6274,4.58e5
Nxt1,DRSC04630,,,10767,5.35e5
Dd,DRSC20539,,,9410,5.84e5
Grl58a,DRSC04145,,,6858,3.67e5
CG3281,DRSC15470,,,8485,4.33e5
lncRNA:CR31044,DRSC22451,,,3896,3.72e5
CG6403,DRSC16033,,,6050,3.60e5
Chd64,DRSC08649,,,7291,3.69e5
Yip1d1,DRSC02166,,,6846,4.30e5
Uros2,DRSC16505,,,6966,4.05e5
obst-E,DRSC02128,,,22179,4.47e5
Noc3,DRSC12535,,,8551,4.12e5
Sgs1,DRSC00787,,,8791,4.03e5
Sgs1,DRSC00848,,,5123,4.66e5
Sik2,DRSC18522,,,8279,3.31e5
CR42545,DRSC03709,,,7387,4.59e5
CG17049 (retired record),DRSC06650,,,6183,3.35e5
CG12898,DRSC06213,,,7482,4.53e5
sona,DRSC04089,,,6106,4.23e5
sona,DRSC04574,,,6472,3.12e5
sona,DRSC04575,,,7122,3.59e5
CG33458,DRSC22891,,,3943,3.79e5
CG33170,DRSC11854,,,8771,3.88e5
CG33170,DRSC22366,,,9570,6.65e5
CG12128 + CG1407,DRSC06446,,,7766,4.40e5
CG10562,DRSC14257,,,7906,6.34e5
h-cup,DRSC15973,,,8143,4.89e5
CG30495,DRSC06703,,,7130,3.32e5
CG33475,DRSC22943,,,4708,4.13e5
lectin-24Db,DRSC00553,,,13378,8.08e5
Gart,DRSC03481,,,6562,3.41e5
GstD6,DRSC16687,,,6690,4.07e5
CG42784,DRSC02534,,,4904,1.13e6
CG42784,DRSC02535,,,5740,2.34e5
CG42784,DRSC22804,,,2519,2.45e5
CG42784,DRSC23000,,,3043,2.88e5
CG7884,DRSC20065,,,6804,3.67e5
CG31924,DRSC00689,,,7175,4.41e5
Rnf11,DRSC21574,,,8263,3.89e5
hpRNA:CR32205,DRSC09890,,,7363,5.04e5
spaw,DRSC06824,,,6091,3.01e5

Taken from above.
For “stable assay Renilla, run 1 (luminescence)”, hpRNA:CR32205 [DRSC09890] is entered as 7363
Entry of bnl [DRSC23212] in “stable assay firefly, run 1 (luminescence)”: 3.11e5
inaE [DRSC19376], stable assay firefly, run 1 (luminescence) = 5.15e5
Set8 [DRSC15473], stable assay Renilla, run 1 (luminescence) → 9281
For “stable assay firefly, run 1 (luminescence)”, SCCRO3 [DRSC06359] shows 4.52e5
For “stable assay Renilla, run 1 (luminescence)”, lectin-24Db [DRSC00553] is entered as 13378
